Results are given in words; binding and its absence hold for the method and conditions named. Some binding calls cover weakened binding; strength is not graded here.

Sequences of proteins named here, by UniProt entry; tags and fusion partners are left off. A change or cut given only in a name is not applied to a line headed by its entry.
UniProt P02452: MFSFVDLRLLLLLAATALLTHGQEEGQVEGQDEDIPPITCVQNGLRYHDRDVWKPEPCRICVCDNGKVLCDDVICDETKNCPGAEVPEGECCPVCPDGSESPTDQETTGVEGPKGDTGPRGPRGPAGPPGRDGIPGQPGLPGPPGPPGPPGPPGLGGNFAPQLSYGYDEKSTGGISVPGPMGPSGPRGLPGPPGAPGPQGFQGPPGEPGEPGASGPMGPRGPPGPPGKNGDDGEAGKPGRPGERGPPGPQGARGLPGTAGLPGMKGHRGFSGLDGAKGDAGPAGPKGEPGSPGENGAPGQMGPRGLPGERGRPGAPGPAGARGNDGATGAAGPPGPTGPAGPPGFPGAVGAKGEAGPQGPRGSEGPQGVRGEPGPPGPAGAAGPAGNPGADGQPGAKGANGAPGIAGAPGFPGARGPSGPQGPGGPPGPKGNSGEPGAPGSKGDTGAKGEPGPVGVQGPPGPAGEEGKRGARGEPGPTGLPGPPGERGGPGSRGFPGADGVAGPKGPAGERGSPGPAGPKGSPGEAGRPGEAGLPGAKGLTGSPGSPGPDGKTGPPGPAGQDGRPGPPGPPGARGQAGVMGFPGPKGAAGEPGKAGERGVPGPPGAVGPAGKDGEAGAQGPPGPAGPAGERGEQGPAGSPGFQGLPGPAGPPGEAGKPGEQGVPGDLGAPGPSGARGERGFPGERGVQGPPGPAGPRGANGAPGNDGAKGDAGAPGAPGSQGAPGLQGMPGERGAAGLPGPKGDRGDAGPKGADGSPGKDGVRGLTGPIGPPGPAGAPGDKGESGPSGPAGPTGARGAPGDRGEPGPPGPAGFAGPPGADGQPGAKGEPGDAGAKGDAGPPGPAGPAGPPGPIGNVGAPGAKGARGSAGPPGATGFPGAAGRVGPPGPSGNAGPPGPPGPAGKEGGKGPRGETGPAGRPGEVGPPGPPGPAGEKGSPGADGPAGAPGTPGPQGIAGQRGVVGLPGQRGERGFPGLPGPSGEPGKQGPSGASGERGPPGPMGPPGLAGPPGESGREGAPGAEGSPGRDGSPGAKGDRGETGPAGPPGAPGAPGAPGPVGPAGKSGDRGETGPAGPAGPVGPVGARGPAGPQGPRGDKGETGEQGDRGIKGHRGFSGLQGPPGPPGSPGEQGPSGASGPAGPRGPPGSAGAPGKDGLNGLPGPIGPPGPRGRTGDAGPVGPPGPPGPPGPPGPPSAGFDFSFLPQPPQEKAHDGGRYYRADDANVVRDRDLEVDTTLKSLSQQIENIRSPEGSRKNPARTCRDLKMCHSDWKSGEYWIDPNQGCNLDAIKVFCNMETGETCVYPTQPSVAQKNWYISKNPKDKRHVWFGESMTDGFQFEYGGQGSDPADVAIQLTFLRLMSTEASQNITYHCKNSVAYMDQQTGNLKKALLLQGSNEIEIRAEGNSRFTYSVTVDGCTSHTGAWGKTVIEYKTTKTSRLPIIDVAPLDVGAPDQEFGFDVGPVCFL

Results on two molecules are retold here after PMC5651841, “The Staphylococcus aureus extracellular matrix protein (Emp) has a fibrous structure and binds to different extracellular matrices” (Scientific Reports, 2017).

Test [1] concerns the target collagen I (UniProt P02452). Description: ELISA; matrix component (0.25 ug/well in 0.1 M Na2CO3, overnight 4 C) immobilised on polystyrene plates; Emp forms 0-1.5 uM added for 1 h at RT, PBST washes; detected with polyclonal anti-Emp IgG and AP-conjugated anti-rabbit IgG; KD from steady-state curves, one-site binding model; both purified.
Test [2] has as its target full-length Emp protein (extracellular matrix protein Emp of Staphylococcus aureus, without the signal peptide) (S. aureus) (UniProt Q2G012). The test can be described thus: dynamic light scattering (photon correlation spectroscopy); 12.94 uM EmpFL in 50 mM sodium phosphate, pH7, 250 mM NaF, 25 C, Zetasizer Nano ZS; both purified.
Test [3] has the same target. The test can be described thus: transmission electron microscopy (negative stain); purified EmpFL (3.1 nmol) or Emp2+3 (2.4 nmol) in 20 ul adsorbed on carbon-coated grids, 2% uranyl acetate; both purified.

For “Emp1 (N-terminal fragment of Emp) (from UniProt Q2G012 26-116) (domain or fragment)”, the binding result in test [1] is listed as “no binding (tested: up to 1.5 uM)”.

B1: full-length Emp protein (extracellular matrix protein Emp of Staphylococcus aureus, without the signal peptide) (natural protein)
chain: SVTESVDKKFVVPESGINKIIPAYDEFKNSPKVNVSNLTDNKNFVASEDKLNKIADSSAASKIVDKNFVVPESKLGNIVPEYKEINNRVNVATNNPASQQVDKHFVAKGPEVNRFITQNKVNHHFITTQTHYKKVITSYKSTHVHKHVNHAKDSINKHFIVKPSESPRYTHPSQSLIIKHHFAVPGYHAHKFVTPGHASIKINHFCVVPQINSFKVIPPYGHNSHRMHVPSFQNNTTATHQNAKVNKAYDYKYFYSYKVVKGVKKYFSFSQSNGYKIGKPSLNIKNVNYQYAVPSYSPTHYVPEFKGSLPAPRV
notes: gene of 1,023 nucleotides; numbers count on: the protein without signal peptide and without His-tag; The vector (printed pQ30-UA, Qiagen) probably adds an N-terminal His6 (surmised); Primer EmpFor1UA starts at nt +76 (codon 26), which would give 315 residues against the printed 314; also called EmpFL; source: E. coli (TG1 transformants, plasmid pQemp), purified (Ni-NTA in 8 M urea, solubilized by …)
Turning to B1, the binding entry in test [2] and in test [3] was “binds” each time.
